According to publication PMC12351132:
Results are given in words; binding and its absence hold for the method and conditions named. In cells and extracts the contact can be indirect. Some entries that bind do so weakly or less than the wild type.

Legend:
[1] = biological target: T1, cysteine-rich with EGF-like domains 2 (CRELD2) (human (endogenous in KYSE150 and TE1)) (UniProt Q6UXH1); test: co-IP; endogenous proteins in NP-40 lysates of KYSE150 and TE1 cells treated with DMSO or 100 nM Tg; lysate with the indicated antibody (anti-CRELD2, anti-TGFBR1 or anti-APMAP) 3 h at 4°C, protein A/G agarose beads overnight at 4°C, three washes with NP-40 buffer, immunoblot; normal rabbit IgG as negative control
T1 sequence: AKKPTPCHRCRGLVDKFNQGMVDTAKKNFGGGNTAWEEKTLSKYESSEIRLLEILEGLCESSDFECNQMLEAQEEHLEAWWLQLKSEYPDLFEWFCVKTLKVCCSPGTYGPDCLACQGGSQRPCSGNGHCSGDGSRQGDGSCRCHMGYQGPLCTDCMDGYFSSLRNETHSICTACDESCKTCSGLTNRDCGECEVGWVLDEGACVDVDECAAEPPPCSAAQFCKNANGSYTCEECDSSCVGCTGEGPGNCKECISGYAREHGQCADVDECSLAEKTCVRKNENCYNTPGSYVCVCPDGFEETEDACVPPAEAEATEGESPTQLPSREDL

[2] = biological target: T2, transforming growth factor beta receptor I (TGFBR1) (human (endogenous in KYSE150 and TE1)) (UniProt P36897); test: co-IP; lysates of cells transfected with the APMAP overexpression plasmid (pcDNA3.1-APMAP) or control; IP with anti-TGFBR1 or anti-APMAP, immunoblot with anti-TAK1, anti-TGFBR1 or anti-APMAP
T2 sequence: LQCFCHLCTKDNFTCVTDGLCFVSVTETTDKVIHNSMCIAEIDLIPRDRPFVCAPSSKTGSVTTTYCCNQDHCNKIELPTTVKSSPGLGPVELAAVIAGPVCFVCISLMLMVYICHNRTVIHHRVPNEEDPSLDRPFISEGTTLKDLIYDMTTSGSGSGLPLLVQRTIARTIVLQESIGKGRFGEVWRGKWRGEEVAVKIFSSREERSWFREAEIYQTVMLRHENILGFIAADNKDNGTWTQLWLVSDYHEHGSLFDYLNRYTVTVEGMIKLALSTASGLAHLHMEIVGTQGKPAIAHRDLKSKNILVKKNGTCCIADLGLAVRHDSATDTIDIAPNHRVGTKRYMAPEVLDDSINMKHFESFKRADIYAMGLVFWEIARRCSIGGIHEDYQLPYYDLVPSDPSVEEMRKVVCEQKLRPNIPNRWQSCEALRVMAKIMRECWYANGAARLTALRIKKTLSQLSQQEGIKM

[3] = biological target: T3, adipocyte plasma membrane-associated protein (APMAP) (human (endogenous in KYSE150 and TE1)) (UniProt Q9HDC9); test: co-IP; endogenous proteins in NP-40 lysates of KYSE150 and TE1 cells treated with DMSO or 100 nM Tg; lysate with the indicated antibody (anti-CRELD2, anti-TGFBR1 or anti-APMAP) 3 h at 4°C, protein A/G agarose beads overnight at 4°C, three washes with NP-40 buffer, immunoblot; normal rabbit IgG as negative control
T3 sequence: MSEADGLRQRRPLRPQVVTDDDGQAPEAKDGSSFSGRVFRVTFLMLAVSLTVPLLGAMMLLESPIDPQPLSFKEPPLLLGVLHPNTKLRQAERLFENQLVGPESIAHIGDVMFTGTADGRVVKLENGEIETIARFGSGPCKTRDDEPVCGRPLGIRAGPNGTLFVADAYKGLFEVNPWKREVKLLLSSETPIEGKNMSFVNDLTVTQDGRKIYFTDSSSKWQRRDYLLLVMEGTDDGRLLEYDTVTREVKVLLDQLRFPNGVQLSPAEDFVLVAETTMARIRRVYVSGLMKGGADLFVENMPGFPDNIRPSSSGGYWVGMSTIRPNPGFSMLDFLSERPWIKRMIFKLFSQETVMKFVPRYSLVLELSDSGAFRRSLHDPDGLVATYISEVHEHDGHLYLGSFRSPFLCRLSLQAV

[4] = biological target: T2, transforming growth factor beta receptor I (TGFBR1) (human (endogenous in KYSE150 and TE1)); test: as above
[5] = biological target: T4, TAK1 (human (endogenous in KYSE150 and TE1)) (UniProt O43318); test: co-IP; lysates of cells transfected with the APMAP overexpression plasmid (pcDNA3.1-APMAP) or control; IP with anti-TGFBR1 or anti-APMAP, immunoblot with anti-TAK1, anti-TGFBR1 or anti-APMAP
T4 sequence: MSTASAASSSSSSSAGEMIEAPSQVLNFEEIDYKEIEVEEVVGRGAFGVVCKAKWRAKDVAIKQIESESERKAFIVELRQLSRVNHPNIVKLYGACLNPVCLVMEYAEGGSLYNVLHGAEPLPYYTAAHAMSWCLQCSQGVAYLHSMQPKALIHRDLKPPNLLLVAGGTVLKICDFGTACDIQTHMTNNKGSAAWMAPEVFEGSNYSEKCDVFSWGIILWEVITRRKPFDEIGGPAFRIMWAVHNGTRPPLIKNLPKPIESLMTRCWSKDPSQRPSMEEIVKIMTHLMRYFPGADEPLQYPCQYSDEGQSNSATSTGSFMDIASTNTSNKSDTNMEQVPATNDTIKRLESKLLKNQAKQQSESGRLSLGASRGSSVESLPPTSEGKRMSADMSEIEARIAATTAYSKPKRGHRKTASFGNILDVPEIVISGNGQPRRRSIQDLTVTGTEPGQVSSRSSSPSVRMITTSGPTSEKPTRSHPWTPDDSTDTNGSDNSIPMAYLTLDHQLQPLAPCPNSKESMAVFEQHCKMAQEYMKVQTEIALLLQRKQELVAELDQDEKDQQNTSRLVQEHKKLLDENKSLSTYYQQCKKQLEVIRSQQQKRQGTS

B1: adipocyte plasma membrane-associated protein (APMAP) (protein, UniProt Q9HDC9 1-416)
chain: MSEADGLRQRRPLRPQVVTDDDGQAPEAKDGSSFSGRVFRVTFLMLAVSLTVPLLGAMMLLESPIDPQPLSFKEPPLLLGVLHPNTKLRQAERLFENQLVGPESIAHIGDVMFTGTADGRVVKLENGEIETIARFGSGPCKTRDDEPVCGRPLGIRAGPNGTLFVADAYKGLFEVNPWKREVKLLLSSETPIEGKNMSFVNDLTVTQDGRKIYFTDSSSKWQRRDYLLLVMEGTDDGRLLEYDTVTREVKVLLDQLRFPNGVQLSPAEDFVLVAETTMARIRRVYVSGLMKGGADLFVENMPGFPDNIRPSSSGGYWVGMSTIRPNPGFSMLDFLSERPWIKRMIFKLFSQETVMKFVPRYSLVLELSDSGAFRRSLHDPDGLVATYISEVHEHDGHLYLGSFRSPFLCRLSLQAV
Q: How did the binding [1] turn out when B1 was run?
A: binds

B2: TAK1 (enzyme, UniProt O43318 1-606)
chain: MSTASAASSSSSSSAGEMIEAPSQVLNFEEIDYKEIEVEEVVGRGAFGVVCKAKWRAKDVAIKQIESESERKAFIVELRQLSRVNHPNIVKLYGACLNPVCLVMEYAEGGSLYNVLHGAEPLPYYTAAHAMSWCLQCSQGVAYLHSMQPKALIHRDLKPPNLLLVAGGTVLKICDFGTACDIQTHMTNNKGSAAWMAPEVFEGSNYSEKCDVFSWGIILWEVITRRKPFDEIGGPAFRIMWAVHNGTRPPLIKNLPKPIESLMTRCWSKDPSQRPSMEEIVKIMTHLMRYFPGADEPLQYPCQYSDEGQSNSATSTGSFMDIASTNTSNKSDTNMEQVPATNDTIKRLESKLLKNQAKQQSESGRLSLGASRGSSVESLPPTSEGKRMSADMSEIEARIAATTAYSKPKRGHRKTASFGNILDVPEIVISGNGQPRRRSIQDLTVTGTEPGQVSSRSSSPSVRMITTSGPTSEKPTRSHPWTPDDSTDTNGSDNSIPMAYLTLDHQLQPLAPCPNSKESMAVFEQHCKMAQEYMKVQTEIALLLQRKQELVAELDQDEKDQQNTSRLVQEHKKLLDENKSLSTYYQQCKKQLEVIRSQQQKRQGTS
Q: How did the binding [2] turn out when B2 was run?
A: binds

Q: What about the binding [3] of the same binder?
A: binds

Q: And the binding [4]?
A: binds

B3: TAK1-binding protein 1 (TAB1) (protein, UniProt Q15750 1-504)
chain: MAAQRRSLLQSEQQPSWTDDLPLCHLSGVGSASNRSYSADGKGTESHPPEDSWLKFRSENNCFLYGVFNGYDGNRVTNFVAQRLSAELLLGQLNAEHAEADVRRVLLQAFDVVERSFLESIDDALAEKASLQSQLPEGVPQHQLPPQYQKILERLKTLEREISGGAMAVVAVLLNNKLYVANVGTNRALLCKSTVDGLQVTQLNVDHTTENEDELFRLSQLGLDAGKIKQVGIICGQESTRRIGDYKVKYGYTDIDLLSAAKSKPIIAEPEIHGAQPLDGVTGFLVLMSEGLYKALEAAHGPGQANQEIAAMIDTEFAKQTSLDAVAQAVVDRVKRIHSDTFASGGERARFCPRHEDMTLLVRNFGYPLGEMSQPTPSPAPAAGGRVYPVSVPYSSAQSTSKTSVTLSLVMPSQGQMVNGAHSASTLDEATPTLTNQSPTLTLQSTNTHTQSSSSSSDGGLFRSRPAHSLPPGEDGRVEPYVDFAEFYRLWSVDHGEQSVVTAP
Q: B3 was tested. Which binding [3] did it give?
A: binds

B4: TAK1-binding protein 2 (TAB2) (protein, UniProt Q9NYJ8 1-693)
chain: MAQGSHQIDFQVLHDLRQKFPEVPEVVVSRCMLQNNNNLDACCAVLSQESTRYLYGEGDLNFSDDSGISGLRNHMTSLNLDLQSQNIYHHGREGSRMNGSRTLTHSISDGQLQGGQSNSELFQQEPQTAPAQVPQGFNVFGMSSSSGASNSAPHLGFHLGSKGTSSLSQQTPRFNPIMVTLAPNIQTGRNTPTSLHIHGVPPPVLNSPQGNSIYIRPYITTPGGTTRQTQQHSGWVSQFNPMNPQQVYQPSQPGPWTTCPASNPLSHTSSQQPNQQGHQTSHVYMPISSPTTSQPPTIHSSGSSQSSAHSQYNIQNISTGPRKNQIEIKLEPPQRNNSSKLRSSGPRTSSTSSSVNSQTLNRNQPTVYIAASPPNTDELMSRSQPKVYISANAATGDEQVMRNQPTLFISTNSGASAASRNMSGQVSMGPAFIHHHPPKSRAIGNNSATSPRVVVTQPNTKYTFKITVSPNKPPAVSPGVVSPTFELTNLLNHPDHYVETENIQHLTDPTLAHVDRISETRKLSMGSDDAAYTQALLVHQKARMERLQRELEIQKKKLDKLKSEVNEMENNLTRRRLKRSNSISQIPSLEEMQQLRSCNRQLQIDIDCLTKEIDLFQARGPHFNPSAIHNFYDNIGFVGPVPPKPKDQRSIIKTPKTQDTEDDEGAQWNCTACTFLNHPALIRCEQCEMPRHF
Q: Which binding [3] does the source give for B4 here?
A: binds

B5: APMAP overexpressed from pcDNA3.1-APMAP (protein, UniProt Q9HDC9 1-416)
chain: MSEADGLRQRRPLRPQVVTDDDGQAPEAKDGSSFSGRVFRVTFLMLAVSLTVPLLGAMMLLESPIDPQPLSFKEPPLLLGVLHPNTKLRQAERLFENQLVGPESIAHIGDVMFTGTADGRVVKLENGEIETIARFGSGPCKTRDDEPVCGRPLGIRAGPNGTLFVADAYKGLFEVNPWKREVKLLLSSETPIEGKNMSFVNDLTVTQDGRKIYFTDSSSKWQRRDYLLLVMEGTDDGRLLEYDTVTREVKVLLDQLRFPNGVQLSPAEDFVLVAETTMARIRRVYVSGLMKGGADLFVENMPGFPDNIRPSSSGGYWVGMSTIRPNPGFSMLDFLSERPWIKRMIFKLFSQETVMKFVPRYSLVLELSDSGAFRRSLHDPDGLVATYISEVHEHDGHLYLGSFRSPFLCRLSLQAV
Q: For B5, which binding [5] is on record?
A: binds
